Primary screen of a compound library

Values are the deposited “Percent Effect”, in %.
How 0% and 100% were set is not recorded. Most values in the screen are low, and negative values occur.
The compounds are a random part of those screened.
Two or more numbers in one place are separate tests of the same structure; such repeats can differ widely.

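Viability assay of Plasmodium falciparum sporozoites; the read-out is not stated. The concentration is filed as 10 mM, unlikely as a test dose, so the dose is not known. The record gives no direction; compounds that gave an IC50 in retests scored well above the rest, so higher reads as lower viability. Strong results were mostly tested again. Size under these conditions: about 34,000 compounds, about 280 of them at 50% or above in at least one test.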

compound,percent effect
COc1ncccc1C(=O)NCC(C)Oc1cccnc1 (stereo not drawn),-6.941
CCc1n[nH]c(C2CN(Cc3nc(C4CC4)no3)CCO2)n1 (stereo not drawn),-12.49
CN(Cc1cn2c(n1)CN(Cc1nccs1)CC2)Cc1ccco1.O=C(O)C(F)(F)F.O=C(O)C(F)(F)F,-12.59
Cl.Cl.Clc1cccc(C[C@@H]2NCCC[C@@H]2Nc2cccc(Cl)c2)c1,14.96
O=C(NCc1ccccc1CN1CCCC1=O)Nc1nncs1,-13.94
O=C(O)C(F)(F)F.[H][C@@]12CCN(CCc3ccccc3)C[C@@]1([H])O[C@@H](C(=O)NCCOC)C2,8.073
CC(C)C1Nc2ccccc2C(=O)N1CC(=O)Nc1nc2c(s1)CCC2 (stereo not drawn),-6.502
C=C(C)CN1CCN(Cc2nccn2C)C(C)C1 (stereo not drawn),7.775
Cc1cnn(CC(C)NCc2nc(-c3cccnc3)no2)c1 (stereo not drawn),-3.583
Cc1nn(C)c(C)c1C1CCCN1C(=O)CCCn1cccn1 (stereo not drawn),-11
Cc1n[nH]c(C)c1-c1nccnc1CC1CCNC1 (stereo not drawn),-1.458
CCOC1COC2(CCN(Cc3cccc(C#N)c3)CC2)C1.O=C(O)C(F)(F)F (stereo not drawn),11.82
Cc1cc(CNC(=O)CCc2c(C)nc3cc(O)nn3c2C)no1,3.188
CCc1nc(CC)n(CC(=O)N(C)CC(F)(F)F)n1,-37.87
Cc1ccc(-n2nnc(C(=O)NC(C)C)c2C2CC2)cc1,5.628
O=C(CN1CCCS1(=O)=O)Nc1ccc(OC(F)F)cc1,-27.93
COCC(NC(=O)c1cnn(C)c1)c1cccc(C(F)(F)F)c1 (stereo not drawn),-7.674
CS(=O)(=O)NCc1nnc2n1CCN(CC1CC1)C2,-5.943
NCC(c1ccccc1)N1CCc2sccc2C1 (stereo not drawn),-2.818
O=C(NCc1nn(-c2ccccc2)c2c1CCC2)C1CC1,1.045
Cc1ccc(NC2CCN(C(=O)CCc3ccco3)CC2)nn1,-4.762
CC(C)(C)c1ccc(C2(C(=O)NCCCS(C)(=O)=O)CC2)cc1,2.181
Cc1cc(F)ccc1N1CCCC(NC(=O)CCCn2ccnc2)C1 (stereo not drawn),-14.15
Cc1cnn(CC(C)NCc2csc(-c3ncccn3)n2)c1 (stereo not drawn),0.6057 and -16.43 and -20.1
[H][C@]12CC[C@]([H])(CN(C(=O)c3cccnc3)C1)N(Cc1cc(C)ccc1C)C2,2.193
COc1ccc(-c2n[nH]c(C)c2CC(=O)NCCN2CCOCC2)cc1,-14.74
CN(Cc1cn2ccccc2n1)C1CCCN(c2cccnn2)C1 (stereo not drawn),11.2
CC(CCN1CCCn2nc(CNS(C)(=O)=O)cc2C1)c1ccccc1 (stereo not drawn),12.46
CN(C)S(=O)(=O)N1CCC2(COCc3cnc(-c4cccnc4)nc32)C1 (stereo not drawn),3.647
CCCC(=O)N(C)Cc1nc(N2CCCC2)ncc1-c1ccncc1.Cl,-0.8866
Cc1nnc2n1CCN(Cc1csc(-c3ccsc3)n1)C2,9.982
O=c1cc(CN2CCCC2)nc2n1CCCN(S(=O)(=O)C1CC1)C2,0.08562
O=C(NCCN1CCOCC1)Nc1cc(F)ccc1-n1cccn1,-1.221
Cc1noc(C)c1C1CCCN1CCC(=O)N1CCc2ccccc2C1 (stereo not drawn),-4.796
O=C(C1CCOCC1)N1CCN(CC2CC2)c2ncccc2C1,-3.038
COCc1noc(-c2ccc(N(C)Cc3cn(C)nc3C)nc2)n1,-8.86
COC(=O)N1CCc2ccc(NC(=O)c3cn(C)nn3)cc2C1,-16.2
CCCNC(=O)C1CCN(Cc2csc(CC)n2)CC1,9.497
c1cnn(CCN2CCOC(Cn3cncn3)C2)c1 (stereo not drawn),0.4112
CC(NC(=O)c1cc(-c2cccc(Cl)c2)no1)C(=O)N1CCCC1 (stereo not drawn),-14.32
c1cnnc(N2CCCC(NCc3ccc(-n4ccnc4)cc3)C2)c1 (stereo not drawn),-8.092
[H][C@]12CN(CC3CC3)C(=O)[C@@]1([H])CN(c1cnccn1)C2,-13.2
[H][C@]12CCCC(=O)N[C@@]1(C)CCCCN2C(=O)c1cn2c(C)cccc2n1,3.34
Cc1cnn(C2CCCN(C(=O)c3cn(-c4ccccc4)nn3)C2)c1 (stereo not drawn),-7.292
CCc1nc(CCNC(=O)C2CC2)sc1C,-4.615
CCc1nc(-c2cncnc2C2CCCNC2)no1.Cl (stereo not drawn),6.333
O=C(NCc1ccc(-n2cncn2)nc1)c1ccc2c(c1)CCO2,3.2
C[C@@H]1CN(Cc2ccccc2)CCN1C(=O)NCc1nccs1,2.309
Cn1ccc2ccnc(CC3CN(C(=O)C4CCC(F)(F)CC4)C3)c21,-26.81 and -17.73 and -3.673
Cc1c(C(=O)N[C@@H]2CC[C@@H](N3CCCC3)[C@@H]2O)[nH]c2ccc(F)cc12,-9.079
CNC(=O)c1cnc2c(C)csc2c1,-6.124
CCN1Cc2cc(F)ccc2N(C(=O)C2CCC2)CCC1=O,3.815
Cc1ccc(-c2nc(CN3CCCC3Cn3cncn3)co2)cc1 (stereo not drawn),7.831
CCOc1ccc(CN2CCc3nc4ccsc4c(=O)n3CC2)cc1.Cl,-2.538
Cc1ccc(-c2nc(CNCC3CN(C)CCO3)cs2)o1 (stereo not drawn),-2.667
Cc1cccc(C2CCCN(S(=O)(=O)c3cccnc3)C2)n1 (stereo not drawn),6.539
O=C(c1cscn1)N1CCC[C@]2(C[C@H](OCC3CC3)CO2)C1,-7.266
CC(C)Nc1ncnc2c1CCN(C(=O)c1ccncc1F)CC2.O=C(O)C(F)(F)F,-12.11
COc1ccccc1CCNC(=O)CN1CCCC1c1noc(C)n1 (stereo not drawn),0.6595
CC(=O)N(Cc1ncc(C)o1)C1CCN(Cc2sc(C)nc2C)C1 (stereo not drawn),0.1701
COc1cccc(-c2noc(C3CCN(Cc4ccccc4C)C3)n2)c1.Cl (stereo not drawn),-19.72 and -8.114 and 18.71
Cc1cc(C)n(CC2CCCCN2C(=O)c2ccc3c(c2)COC3)n1 (stereo not drawn),8.939
COC(=O)c1sc(NCc2ccc(N3CCC(O)CC3)c(F)c2)nc1Cl,-24.87 and -16.11 and -1.959
Cn1cc(C[C@H]2[C@H](N3CCOCC3)CCN2C(=O)c2ccco2)cn1.O=C(O)C(F)(F)F,-7.497
Cn1ncc(NC(=O)c2noc3c2CCCC3)c1C(=O)N1CCCCC1,-1.627
CCCn1[nH]cc/c1=N\C(=O)CN1CCOC(Cn2cc(C)cn2)C1 (stereo not drawn),-0.7353
CN(C)C(CNC(=O)c1cccc(-n2cnnn2)c1)c1ccccc1Cl (stereo not drawn),-1.771
Cc1nccn1C1CCCN(C(=O)CCc2nc(C(C)C)no2)C1 (stereo not drawn),-7.828
CC(C)c1nc(CN2CCCN(Cc3nccn3C)CC2)no1,7.361
O=C1CC(c2ccncc2)C2(CCN(Cc3nccs3)CC2)N1 (stereo not drawn),-5.353
COc1cccc(OCC2CCCN(C(C)=O)C2)c1 (stereo not drawn),16.03 and 18.01 and 52.06
Cn1c(=O)ccn(CC(=O)Nc2cccnc2)c1=O,-12.57
Cc1nc(CN(C)C2CCN(CCc3ccc4c(c3)CCO4)C2)no1 (stereo not drawn),8.673
O=C(O)C(F)(F)F.O=C(O)C(F)(F)F.[H][C@@]12CN(Cc3ccoc3)C[C@]1([H])C(=O)N(CCN1CCCC1)C2,-1.138
C=C(C)COc1cccc(CNC(COC)c2ccnn2C)c1 (stereo not drawn),-7.281
Cc1cccc(-c2nc(CN(Cc3cccs3)CC3CCCO3)no2)c1 (stereo not drawn),-14.56
O=C(O)C(F)(F)F.O=C(O)C(F)(F)F.[H][C@@]12OCCN(Cc3ccc(F)cc3)[C@@]1([H])CC[C@H]2OCCN1CCCC1,4.654
Cc1cccc(CN2CCCC2c2cccc(CCC(=O)O)n2)c1 (stereo not drawn),-3.997
CC(C)Cc1nc(CN2CCCC2Cn2cncn2)no1 (stereo not drawn),2.218
O=C(NCCOc1ncc(Cl)cc1Cl)c1ccncc1,-10.37
Cc1cc(C2CCCCCN2Cc2cn(C)nc2C)no1 (stereo not drawn),-14.69
COCc1noc(-c2ccc(N3CCCC3c3ccc(F)cc3)nc2)n1 (stereo not drawn),-8.49
CC1c2ncc(COCC3CC3)n2CCN1C(=O)c1ccnnc1 (stereo not drawn),-3.406
CCc1noc(CN2CCCN(Cc3cccs3)CC2)n1,3.307
CCc1noc(C(C)N2CCN(Cc3nc(C)c(C)o3)CC2)n1 (stereo not drawn),0.1649
Cn1cnc2c1CCN(Cc1nc(COc3ccc(F)cc3)no1)C2,-0.0815
CC(C)CN1CC(C(=O)NCCc2ccc(OC(F)F)cc2)CC1=O (stereo not drawn),4.8
COCC(=O)N1CCCC1c1cccc(Cc2ccccc2F)n1 (stereo not drawn),-11.78
Cn1ccc2c(C(=O)N3CCC4(CCOC4)C3)cccc21 (stereo not drawn),-2.842
Fc1ccc(-c2nnc(CN3CCCC(Cn4cncn4)C3)o2)cc1 (stereo not drawn),-1.057
COCCOCC(=O)NCc1ccc(N(C)C)nc1,0.3509

For reference, 11 entries once more:

| compound | percent effect |
|---|---|
| `CCCn1[nH]cc/c1=N\C(=O)CN1CCOC(Cn2cc(C)cn2)C1` (stereo not drawn) | -0.7353 |
| `Cc1ccc(NC2CCN(C(=O)CCc3ccco3)CC2)nn1` | -4.762 |
| `Cc1nccn1C1CCCN(C(=O)CCc2nc(C(C)C)no2)C1` (stereo not drawn) | -7.828 |
| `CN(C)C(CNC(=O)c1cccc(-n2cnnn2)c1)c1ccccc1Cl` (stereo not drawn) | -1.771 |
| `Cc1cc(CNC(=O)CCc2c(C)nc3cc(O)nn3c2C)no1` | 3.188 |
| `Cc1nn(C)c(C)c1C1CCCN1C(=O)CCCn1cccn1` (stereo not drawn) | -11 |
| `O=C(NCc1ccc(-n2cncn2)nc1)c1ccc2c(c1)CCO2` | 3.2 |
| `Cc1cccc(CN2CCCC2c2cccc(CCC(=O)O)n2)c1` (stereo not drawn) | -3.997 |
| `COC(=O)c1sc(NCc2ccc(N3CCC(O)CC3)c(F)c2)nc1Cl` | -24.87 and -16.11 and -1.959 |
| `CCOc1ccc(CN2CCc3nc4ccsc4c(=O)n3CC2)cc1.Cl` | -2.538 |
| `CCc1noc(C(C)N2CCN(Cc3nc(C)c(C)o3)CC2)n1` (stereo not drawn) | 0.1649 |

Measurements from “University of Dundee, Small-Polar-MMV Screening Library” (2021), ChEMBL document CHEMBL3988442.